The target in the assay is Native human Granzyme A (human) (UniProt P12544). Put plainly: reducing SDS gel electrophoresis (silver stain and western blot); purified GzmA run under reducing conditions; both purified. On the technique in general: A western blot detects proteins with antibodies after separation by electrophoresis.

These are yes or no findings as the source states them, for the method shown.

B1: Native human Granzyme A (enzyme, UniProt P12544 29-262, looked up)
chain: IIGGNEVTPHSRPYMVLLSLDRKTICAGALIAKDWVLTAAHCNLNKRSQVILGAHSITREEPTKQIMLVKKEFPYPCYDPATREGDLKLLQLMEKAKINKYVTILHLPKKGDDVKPGTMCQVAGWGRTHNSASWSDTLREVNITIIDRKVCNDRNHYNFNPVIGMNMVCAGSLRGGRDSCNGDSGSPLLCEGVFRGVTSFGLENKCGDPRGPGVYILLSKKHLNWIIMTIKGAV
notes: Granzyme A (GzmA), native human protein, commercially obtained; Some monomer at ~25 kDa is seen beside the homodimer; also called NhGzmA; native GzmA; source: bought: TheraTest (Lombard, IL)
Regarding B1, the binding entry was “no binding (condition: under reducing conditions)”.
